Experimental data taken from PubChem BioAssay AID504847 (National Center for Advancing Translational Sciences (NCATS), 2011).
Where “and” joins values, the source holds several entries; their conditions need not be identical. Equal values may be shown once. About 3,700 (0.93%) of roughly 400,000 compounds were called active. The inconclusive results got no clear call from the source; some entries with a clear call stand among them for comparison. Calls come from the whole dose curve; as a rule, active = well fitted inhibition curve with a large enough effect; inconclusive = small, poorly fitted or top-dose-only effect, or another doubt; inactive = no such curve, though single readings can be large or run the other way. Where the call is inconclusive, the potency comes from a doubtful curve fit.

The chains behind the UniProt entries cited, without tags or fusion partners. Where a name states a change or a piece, a line headed by the entry shows the natural chain unless it says otherwise.
UniProt P11473: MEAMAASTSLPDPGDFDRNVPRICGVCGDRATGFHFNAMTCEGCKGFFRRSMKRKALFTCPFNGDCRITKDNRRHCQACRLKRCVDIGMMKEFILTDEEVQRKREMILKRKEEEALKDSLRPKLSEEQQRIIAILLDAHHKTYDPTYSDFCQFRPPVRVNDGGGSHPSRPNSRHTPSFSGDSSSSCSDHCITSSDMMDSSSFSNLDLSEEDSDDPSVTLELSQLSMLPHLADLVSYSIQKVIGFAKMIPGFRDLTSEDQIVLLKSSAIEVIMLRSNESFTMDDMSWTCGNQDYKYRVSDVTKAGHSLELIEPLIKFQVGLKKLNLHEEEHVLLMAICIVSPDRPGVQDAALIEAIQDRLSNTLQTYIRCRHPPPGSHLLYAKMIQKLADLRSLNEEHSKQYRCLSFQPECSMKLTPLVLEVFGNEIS

These compounds were tested against Vitamin D3 receptor (Homo sapiens) (UniProt P11473) (assay: Inhibitors of the vitamin D receptor (VDR): qHTS). Conditions: VDR-SRC2-3 peptide fluorescence polarization, 2 h; max response, negative = inhibition: active compounds read low.
In short: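 Reagent solutions, kept cold and dark, are dispensed first; compounds are then pinned in at 23 nl, plates briefly spun, and incubated 2 h at ambient temperature. Inhibition of VDR–SRC2-3 peptide binding is read by fluorescence polarization.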
% is set by controls: 0 for no effect and ±100 for the full control effect; potency is the fitted concentration of half-maximal effect.

Row | SMILES | Potency | max response, negative = inhibition
1 | O=C(/C=C/c1ccc2c(c1)OCO2)c1c(O)n(CCC2=CCCCC2)c(=O)[nH]c1=O | inconclusive: 4.47 µM [inhibitor, partial curve, poor fit] | –
2 | COc1ccc(N2C(=O)NC(=O)/C(=C/c3cccc(OC(=O)c4cccs4)c3)C2=O)cc1Cl | inconclusive: 56.2 µM [inhibitor, partial curve, poor fit] | –
3 | CNCC(=O)c1ccccc1 | inconclusive: 89.1 µM [inhibitor, partial curve, poor fit] | –
4 | CN1C(=O)C(=Cc2ccccc2OCc2ccc(C(=O)O)cc2)C(=O)N(C)C1=O | inconclusive: 25.1 µM [inhibitor, full curve, poor fit] | –
5 | COc1cc(/C=C2/C(=O)NC(=O)N(c3ccc(C)cc3)C2=O)cc(OC)c1OC | inconclusive: 79.4 µM [inhibitor, single point] | –
6 | CC(=O)Nc1ccccc1C(=O)OCC(=O)c1ccccc1Cl | – | inactive: 3.53%
7 | CCc1ccccc1N1C(=O)CC(=O)NC1=O | – | inactive: -18.2%
8 | Nc1ccc(N)cc1 | inconclusive: 25.1 µM [inhibitor, partial curve, poor fit] | –
9 | ClC1=C(Cl)C(Cl)(C2(Cl)C(Cl)=C(Cl)C(Cl)=C2Cl)C(Cl)=C1Cl | active: 3.16 µM | –
10 | O=[N+]([O-])c1ccc(NCCNc2ccc([N+](=O)[O-])cc2)cc1 | inconclusive: 89.1 µM [inhibitor, partial curve, poor fit] | –
11 | O=C1NC(=O)N(Cc2ccccc2)C(=O)/C1=C/C=C/c1ccco1 | inconclusive: 11.2 µM [inhibitor, partial curve] | –
12 | CCCN1CCC[C@@H](c2cccc(O)c2)C1 | – | inactive: -4.24% and inactive: 4.28%
13 | O=C1NC(=S)N(c2ccc(Br)cc2)C(=O)/C1=C/N1CCN(C(=O)c2ccco2)CC1 | inconclusive: 79.4 µM [inhibitor, single point] | –
14 | O=C1NC(=S)NC(=O)C1=Cc1ccc(OCC(=O)N2CCCC2)cc1 | active: 44.7 µM | –
15 | COc1ccccc1N1C(=O)NC(=O)/C(=C/c2ccc3c4c(cccc24)CC3)C1=O | active: 50.1 µM | –
16 | CCOC(=O)c1c(NC(NC(=O)CF)C(Cl)(Cl)Cl)sc2c1CCCC2 (stereo not given) | active: 44.7 µM | –
17 | Cc1cc(N2CCOCC2)ccc1/C=C1\C(=O)NC(=O)N(c2ccccc2)C1=O | inconclusive: 79.4 µM [inhibitor, single point] | –
18 | CN1CCC(O)(c2ccccc2)C2CCCC21 (stereo not given) | inconclusive: 79.4 µM [inhibitor, partial curve, poor fit] | –
19 | Cc1ccc(Sc2ccc(C=C3C(=O)N(C)C(=O)N(C)C3=O)o2)cc1 | inconclusive: 70.8 µM [inhibitor, partial curve, poor fit] | –
20 | CCOc1ccc(C(C)=O)cc1Cc1c(O)[nH]c(=S)[nH]c1=O | inconclusive: 89.1 µM [inhibitor, single point] | –

One compound at a time (already shown). Values in the order: Potency | max response, negative = inhibition
O=C1NC(=S)NC(=O)C1=Cc1ccc(OCC(=O)N2CCCC2)cc1 as listed: active: 44.7 µM | –
O=C1NC(=S)N(c2ccc(Br)cc2)C(=O)/C1=C/N1CCN(C(=O)c2ccco2)CC1 as listed: inconclusive: 79.4 µM [inhibitor, single point] | –
Cc1cc(N2CCOCC2)ccc1/C=C1\C(=O)NC(=O)N(c2ccccc2)C1=O as listed: inconclusive: 79.4 µM [inhibitor, single point] | –
CNCC(=O)c1ccccc1 as listed: inconclusive: 89.1 µM [inhibitor, partial curve, poor fit] | –

(further entries)

Row | SMILES | Potency | max response, negative = inhibition
21 | CC(C)C(C)/C=C/C(C)C1CCC2C3=CC=C4CC(O)CCC4(C)C3CCC21C (stereo not given) | inconclusive: 50.1 µM [inhibitor, partial curve, poor fit] | –
22 | N#Cc1c(Cl)nc(Cl)c2c1CCN(Cc1ccccc1)C2 | inconclusive: 70.8 µM [inhibitor, single point] | –
23 | C=CCN1C(=O)NC(=O)/C(=C/c2ccc(OC)c(COc3ccc(NC(C)=O)cc3)c2)C1=O | active: 79.4 µM | –
24 | Cc1cccc(N2C(=O)NC(=O)/C(=C\c3cnn(-c4ccccc4)c3)C2=O)c1 | inconclusive: 56.2 µM [inhibitor, partial curve, poor fit] | –
25 | Cc1noc(C)c1CSc1nc2cc(S(=O)(=O)N3CCOCC3)ccc2o1 | inconclusive: 89.1 µM [inhibitor, partial curve, poor fit] | –
26 | O=C1NC(=O)N(c2ccccc2)C(=O)/C1=C\c1ccc([N+](=O)[O-])s1 | active: 39.8 µM | –
27 | O=c1[nH]c(=S)n(Cc2ccc(F)cc2)c(O)c1C=NCC1CCCO1 (stereo not given) | inconclusive: 10 µM [inhibitor, full curve, poor fit] | –
28 | COC(=O)C1=C(c2cc3ccccc3o2)C[C@@H]2CC[C@H]1N2C(=O)NCCCOC(C)C | – | inactive: 8.53%
29 | CCCNC(=O)N1[C@H]2CC[C@@H]1C(C(=O)OC)=C(c1ccc(Cl)c(C(F)(F)F)c1)C2 | inconclusive: 70.8 µM [inhibitor, partial curve, poor fit] | –
30 | O=C(NCc1ccco1)c1ccc(Cn2c(=O)c3ccccc3n(Cc3cccc(F)c3)c2=O)cc1 | inconclusive: 25.1 µM [inhibitor, single point] | –
31 | O=c1c2ccccc2nc(CN2CCCCCC2)n1-c1ccc(F)cc1 | inconclusive: 100 µM [inhibitor, single point] | –
32 | CC(C)(O)[C@@H]1C2OC(=O)[C@@H]1[C@]1(O)C[C@H]3O[C@]34C(=O)O[C@H]2[C@]14C (tested in a mixture with another compound) | inconclusive: 89.1 µM [inhibitor, partial curve, poor fit] | –
33 | CCOP(=O)(OCC)/C(=N/OC(=O)c1ccc(Cl)cc1Cl)C(N)=O | inconclusive: 79.4 µM [inhibitor, partial curve] | –
34 | CC(=O)c1ccc(OC(C)C)c(Cc2c(O)[nH]c(=S)[nH]c2=O)c1 | inconclusive: 89.1 µM [inhibitor, single point] | –
35 | CC(C)CS(=O)(=O)C1=NN2C(=N)/C(=C\c3ccc(OC(=O)c4ccco4)cc3)C(=O)N=C2S1 | inconclusive: 39.8 µM [inhibitor, partial curve] | –
36 | C#CC(CC)(CC)NC(=O)Nc1ccc(OCC)cc1 | – | inactive: 1.77%
37 | CN1C(=O)C(=Cc2ccc(OCC(=O)Nc3ccccc3)cc2)C(=O)N(C)C1=O | inconclusive: 14.1 µM [inhibitor, partial curve, poor fit] | –
38 | COC(=O)C1=C(C(=O)OC)C2OC1c1cc3ccccc3cc12 | active: 8.91 µM | –
39 | O=C1NC(=O)N(c2ccccc2)C(=O)/C1=C/C=C/c1ccco1 | active: 20 µM | –
40 | CC(C)(C#CC(=O)O)OOC(c1ccccc1)(c1ccccc1)c1ccccc1 | inconclusive: 89.1 µM [inhibitor, single point] | –

As entered above:
For Potency, O=C1NC(=O)N(c2ccccc2)C(=O)/C1=C\c1ccc([N+](=O)[O-])s1 has active: 39.8 µM
For Potency, CC(C)(C#CC(=O)O)OOC(c1ccccc1)(c1ccccc1)c1ccccc1 has inconclusive: 89.1 µM [inhibitor, single point]

The list goes on.

Row | SMILES | Potency | max response, negative = inhibition
41 | O=C1NC(=O)N(c2ccccc2)C(=O)/C1=C/c1ccc([N+](=O)[O-])s1 | active: 50.1 µM | –
42 | Cc1ccc(-c2nnc(Nc3ccc(O)cc3)c3ccccc23)cc1S(=O)(=O)N1CCOCC1 | inconclusive: 50.1 µM [inhibitor, partial curve, poor fit] | –
43 | COC(=O)C1=Nc2ccccc2/C1=C\c1c(O)n(C)c(=O)n(C)c1=O | inconclusive: 100 µM [inhibitor, single point] | –
44 | Cc1cc(/C=C2\C(=O)NC(=O)N(c3ccc(Br)cc3)C2=O)c(C)n1-c1cc(C(=O)O)cc(C(=O)O)c1 | inconclusive: 100 µM [inhibitor, partial curve, poor fit] | –
45 | Cc1ccccc1N1CCN(Cc2ccc3c(c2)OCO3)CC1 | – | inactive: 2.41%
46 | COc1cc(OC)cc(C(=O)Nc2ccc(Br)cc2C(=O)c2ccccc2)c1 | inconclusive: 25.1 µM [inhibitor, full curve, poor fit] | –
47 | O=S(=O)(O)c1cc(N=C=S)ccc1/C=C/c1ccc(N=C=S)cc1S(=O)(=O)O | inconclusive: 50.1 µM [inhibitor, partial curve] | –
48 | CCCCOc1ccc(C(C)=O)cc1Cc1c(O)[nH]c(=S)[nH]c1=O | inconclusive: 89.1 µM [inhibitor, single point] | –
49 | CC(=O)NBr | – | inactive: -2.36%
50 | CC(=O)Oc1c2c(c(CC=C(C)C)c3c1C(=O)C1=CC4CC5C(C)(C)OC(C/C=C(\C)C(=O)O)(C4=O)[C@]15O3)OC(C)(CCC=C(C)C)C=C2 (stereo not given in full) | active: 1.26 µM | –
51 | CC1=CC(=O)OC2CC3OC4C[C@@H](C)C5OC6CC7O[C@]8(C)C/C=C\C9OC%10CC%11OC(CC(C)C%12OCCO%12)CC(O)[C@]%11(C)OC%10CC9OC8C[C@]7(C)O[C@]6(C)CCC5OC4C[C@]3(C)OC12 (stereo not given in full) | inconclusive: 100 µM [inhibitor, single point] | –
52 | O=C1NC(=O)N(Cc2cccs2)C(=O)/C1=C/c1ccc(N2CCOCC2)cc1 | inconclusive: 100 µM [inhibitor, single point] | –
53 | COC(=O)CN1CN(c2ccccc2)C2(CCN(Cc3ccc4ccccc4c3)CC2)C1=O | inconclusive: 15.8 µM [inhibitor, single point] | –
54 | COc1cc2c(cc1OC)C(C)NCC2 (stereo not given) | – | inactive: -20.6%
55 | COc1cc(/C=C/[N+](=O)[O-])ccc1OC(=O)c1cccnc1 | active: 25.1 µM | –
56 | Cc1cc(N2CCCCC2)ccc1C=C1C(=O)N(C)C(=S)N(C)C1=O | inconclusive: 50.1 µM [inhibitor, partial curve, poor fit] | –
57 | CN1CC[C@@]2(C)c3cc(O)ccc3N(C)[C@@H]12 | inconclusive: 89.1 µM [inhibitor, single point] | –
58 | Cc1ccc(S(=O)(=O)NC(Cc2cnc[nH]2)C(=O)O)cc1 (stereo not given) | inconclusive: 79.4 µM [inhibitor, partial curve, poor fit] | –
59 | COc1ccc2c(c1OC)C(=O)OC2c1c(O)n(Cc2ccc(F)cc2)c(=O)[nH]c1=O (stereo not given) | inconclusive: 89.1 µM [inhibitor, partial curve, poor fit] | –
60 | CCCCCCCCCCCCCC(=O)O[C@@H]1[C@@H](C)[C@@]2(O)[C@@H](C=C(CO)C[C@@]3(O)C(=O)C(C)=C[C@@H]23)C2C(C)(C)[C@@]21OC(C)=O (stereo not given in full) | – | inactive: -3.8%
